{"source": "patent US20050288377A1", "about": "“Use of calcimimetic as an adynamic bone disease related treatment” (priority 2004, published 2005)", "key": {"[1]": {"test_system": "parathyroid cancer patients", "experiment": "PTH levels and ratio in parathyroid cancer patients receiving Cinacalcet HCl (Table 2)", "assay_type": "in vivo, human", "settings": "parathyroid cancer patients receiving treatment", "description": "See M. R. Rubin, et al., “A Molecular Form of PTH Distinct From PTH (1-84) is Produced in Parathyroid Carcinoma” (J. Bone & Mineral Metab., forthcoming)."}, "bone turnover": {"test_system": "bone turnover", "settings": "cited from earlier work"}}, "note": "Counter-ions that a name gives are not always drawn. For at least one compound, name, drawing or mass did not settle the structure.", "data": [{"smiles": "C[C@@H](NCCCc1cccc(C(F)(F)F)c1)c1cccc2ccccc12", "note": "[Cinacalcet HCl]", "values": [{"measurement": "serum calcium concentrations", "setting": "[1]", "result": "significant lowering"}, {"measurement": "patients who witnessed a decrease in bone turnover", "setting": "bone turnover; bone biopsy before and after treatment, placebo group 38%", "result": 28, "unit": "%"}, {"measurement": "lowering of bone turnover", "setting": "bone turnover; conclusion from the biopsy data", "result": "does not lower bone turnover to a clinically significant degree"}]}]}
